No constants are given. Whether binding was seen depends on the method and setting. In cells and extracts the contact can be indirect. Some entries that bind do so weakly or less than the wild type.

These results are taken from paper PMC2982846.

The target of the test is T1, Fe65 (mouse (endogenous in mouse brain)) (UniProt Q9QXJ1).
T1 sequence: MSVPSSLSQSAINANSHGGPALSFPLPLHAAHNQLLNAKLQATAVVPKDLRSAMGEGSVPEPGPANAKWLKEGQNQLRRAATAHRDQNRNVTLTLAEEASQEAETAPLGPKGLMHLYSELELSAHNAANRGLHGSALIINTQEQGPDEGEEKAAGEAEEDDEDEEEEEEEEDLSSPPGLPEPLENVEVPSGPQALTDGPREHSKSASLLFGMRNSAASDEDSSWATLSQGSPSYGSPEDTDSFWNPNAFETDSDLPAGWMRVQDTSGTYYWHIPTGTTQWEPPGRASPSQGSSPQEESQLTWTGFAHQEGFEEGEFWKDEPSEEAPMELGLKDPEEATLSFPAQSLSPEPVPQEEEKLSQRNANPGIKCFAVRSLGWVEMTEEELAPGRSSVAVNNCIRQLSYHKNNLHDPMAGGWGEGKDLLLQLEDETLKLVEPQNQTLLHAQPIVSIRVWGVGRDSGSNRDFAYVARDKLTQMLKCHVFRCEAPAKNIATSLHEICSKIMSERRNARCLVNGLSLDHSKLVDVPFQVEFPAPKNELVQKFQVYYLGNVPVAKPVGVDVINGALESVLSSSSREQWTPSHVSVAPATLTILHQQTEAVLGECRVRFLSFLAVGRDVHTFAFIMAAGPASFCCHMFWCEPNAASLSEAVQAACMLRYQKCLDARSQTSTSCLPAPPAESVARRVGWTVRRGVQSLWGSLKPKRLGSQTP
Description: co-IP; IP with anti-Fe65 (I12) from membrane enriched mouse brain fraction (500 ug membrane protein; IP buffer 20 mM Hepes pH 8.0, 10% glycerol, 137 mM NaCl, 0.5% Triton-X-100, 2 mM EDTA; protein A/G, overnight), blot for full length APP (22C11); APP^wt/wt and APP^YG/YG mice.

Consider “Aβ-precursor protein (APP), wild type, from APP^wt/wt mouse brain (from UniProt P12023-2 18-695)”, for which the binding entry was “binds”.

As for “APP Y682G, from APP^YG/YG knock-in mouse brain (from UniProt P12023-2 18-695)”, the binding result is “no binding”.
